Reference: the supplement of paper PMC5407854, “Inhibitor of ppGalNAc-T3-mediated O-glycosylation blocks cancer cell invasiveness and lowers FGF23 levels” (eLife, 2017)
The other results are listed elsewhere or left out. Small differences around the control level are noise.

Tests used:
ppGalNAc-T3 sensor = experiment: T3 sensor activation Q score (MG/GFP ratio z-score vs DMSO controls) (SD units); higher = more sensor activation (inhibition of ppGalNAc-T3 glycosylation); conditions: HEK293 sensor cells; 10 µM; 6 h
Method: (§1)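 Cells were treated with compound at 10 uM for 6 h, then MG/GFP ratio was read by flow cytometry (10,000 cells per well, duplicate wells). Q = (R - R_neg)/SD_neg relative to DMSO vehicle controls; the signal rises when the glycosyltransferase is inhibited.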

ppGalNAc-T2 sensor = experiment: T2 sensor activation Q score (MG/GFP ratio z-score vs DMSO controls) (SD units); higher = more sensor activation (inhibition of ppGalNAc-T2 glycosylation); conditions: HEK293 sensor cells; 10 µM; 6 h
Method: as §1

CC(=O)Nc1cccc(N2CCCC2=O)c1
T3 sensor activation Q score (ppGalNAc-T3 sensor): 0.41 | T2 sensor activation Q score (ppGalNAc-T2 sensor): -0.785

O=C(O)C1CCN(c2nc(-c3ccc(Cl)cc3)cs2)CC1
T3 sensor activation Q score (ppGalNAc-T3 sensor): -0.3 | T2 sensor activation Q score (ppGalNAc-T2 sensor): -1.42

CCOc1cc(CNc2ccc3c(c2)CCC3)ccc1O
T3 sensor activation Q score (ppGalNAc-T3 sensor): 0.465 | T2 sensor activation Q score (ppGalNAc-T2 sensor): -0.2

COc1ccc(C(=O)N2CCCC2)cc1OC
T3 sensor activation Q score (ppGalNAc-T3 sensor): 0.235 | T2 sensor activation Q score (ppGalNAc-T2 sensor): 0.075

Cc1ccc(-n2cnnn2)cc1Cl
T3 sensor activation Q score (ppGalNAc-T3 sensor): 0.28 | T2 sensor activation Q score (ppGalNAc-T2 sensor): -0.52

Cc1nc2ccccc2n1C(=O)N(C)C
T3 sensor activation Q score (ppGalNAc-T3 sensor): -0.04 | T2 sensor activation Q score (ppGalNAc-T2 sensor): -0.38

O=C(NCc1cccnc1)c1ccc(Br)cc1
T3 sensor activation Q score (ppGalNAc-T3 sensor): 0.4 | T2 sensor activation Q score (ppGalNAc-T2 sensor): 0.775

CC(C)(C)c1ccc(C(=O)Nc2ccc(F)cc2)cc1
T3 sensor activation Q score (ppGalNAc-T3 sensor): 0.545 | T2 sensor activation Q score (ppGalNAc-T2 sensor): -0.44

Cc1ccc(NC(=O)N2CCN(C)CC2)cc1
T3 sensor activation Q score (ppGalNAc-T3 sensor): 0.265 | T2 sensor activation Q score (ppGalNAc-T2 sensor): -0.19

c1ccc2c3c([nH]c2c1)-c1nonc1CC3
T3 sensor activation Q score (ppGalNAc-T3 sensor): -0.38 | T2 sensor activation Q score (ppGalNAc-T2 sensor): 0.26

COc1cccc(CN2CCSCC2)c1
T3 sensor activation Q score (ppGalNAc-T3 sensor): 0.15 | T2 sensor activation Q score (ppGalNAc-T2 sensor): -0.08

CC(=O)c1c(C)n(C)c2ccc(O)cc12
T3 sensor activation Q score (ppGalNAc-T3 sensor): 0.48 | T2 sensor activation Q score (ppGalNAc-T2 sensor): 1.28

CCOc1ccccc1CN1CCN(Cc2ccc3c(c2)OCO3)CC1
T3 sensor activation Q score (ppGalNAc-T3 sensor): 0.41 | T2 sensor activation Q score (ppGalNAc-T2 sensor): 1.16

CC(C)C1=NN2C(=N)CC(=O)N=C2S1
T3 sensor activation Q score (ppGalNAc-T3 sensor): 1.43 | T2 sensor activation Q score (ppGalNAc-T2 sensor): 0.99

CCc1nc2c(c(=O)[nH]1)C1(CCCCC1)Cc1ccccc1-2
T3 sensor activation Q score (ppGalNAc-T3 sensor): -0.535 | T2 sensor activation Q score (ppGalNAc-T2 sensor): -0.43

COc1cccc(OC)c1C(=O)Nc1ccccc1C
T3 sensor activation Q score (ppGalNAc-T3 sensor): 0.355 | T2 sensor activation Q score (ppGalNAc-T2 sensor): -0.535

COc1ccc(NS(=O)(=O)c2cccc(N)c2)cc1
T3 sensor activation Q score (ppGalNAc-T3 sensor): 0.12 | T2 sensor activation Q score (ppGalNAc-T2 sensor): -0.185

Cc1ncc(C23CC4CC(CC(C4)C2)C3)[nH]1
T3 sensor activation Q score (ppGalNAc-T3 sensor): 1.04 | T2 sensor activation Q score (ppGalNAc-T2 sensor): 1.42

COc1ccccc1C1NC(C(=O)O)Cc2c1[nH]c1ccccc21 (stereo unspecified)
T3 sensor activation Q score (ppGalNAc-T3 sensor): -0.65 | T2 sensor activation Q score (ppGalNAc-T2 sensor): -1.59

COc1ccc(-c2cn[nH]c2N)cc1OC
T3 sensor activation Q score (ppGalNAc-T3 sensor): 0.5 | T2 sensor activation Q score (ppGalNAc-T2 sensor): 0.29

Cc1cccc(CN2CCC(O)CC2)c1
T3 sensor activation Q score (ppGalNAc-T3 sensor): 0.2 | T2 sensor activation Q score (ppGalNAc-T2 sensor): 0.25

CN1CCN(Cc2cc([N+](=O)[O-])ccc2O)CC1
T3 sensor activation Q score (ppGalNAc-T3 sensor): 0.675 | T2 sensor activation Q score (ppGalNAc-T2 sensor): -0.26

O=C(NCc1ccncc1)c1ccc(Br)cc1
T3 sensor activation Q score (ppGalNAc-T3 sensor): 1.49 | T2 sensor activation Q score (ppGalNAc-T2 sensor): 0.225

CC(C)Oc1ccc(C2CC(=O)NC2=O)cc1 (stereo unspecified)
T3 sensor activation Q score (ppGalNAc-T3 sensor): 0.05 | T2 sensor activation Q score (ppGalNAc-T2 sensor): -1.47

O=S(=O)(c1ccc(F)cc1)c1ccc(-c2ccccc2)cc1
T3 sensor activation Q score (ppGalNAc-T3 sensor): 0.345 | T2 sensor activation Q score (ppGalNAc-T2 sensor): -0.455

CC1(C)Cc2ccccc2C(Nn2cnnc2)=N1
T3 sensor activation Q score (ppGalNAc-T3 sensor): 0.935 | T2 sensor activation Q score (ppGalNAc-T2 sensor): 0.95

CCN1CCN(C/C=C/c2ccc(N(C)C)cc2)CC1
T3 sensor activation Q score (ppGalNAc-T3 sensor): 0.23 | T2 sensor activation Q score (ppGalNAc-T2 sensor): -0.575

CC1=C([N+](=O)[O-])C(c2ccccc2Cl)NC(=O)N1 (stereo unspecified)
T3 sensor activation Q score (ppGalNAc-T3 sensor): 0.3 | T2 sensor activation Q score (ppGalNAc-T2 sensor): -0.03

OC1CCN(Cc2ccc(F)cc2)CC1
T3 sensor activation Q score (ppGalNAc-T3 sensor): 0.24 | T2 sensor activation Q score (ppGalNAc-T2 sensor): 1.2

CCCC(O)=C1C(=O)CC(C)(C)CC1=Nc1ccncc1
T3 sensor activation Q score (ppGalNAc-T3 sensor): -0.36 | T2 sensor activation Q score (ppGalNAc-T2 sensor): -0.83

CCc1ccc(S(=O)(=O)Nc2ccc([N+](=O)[O-])cc2C)cc1
T3 sensor activation Q score (ppGalNAc-T3 sensor): 0.41 | T2 sensor activation Q score (ppGalNAc-T2 sensor): -0.465

COc1cccc(OC)c1C(=O)N1CCCCC1
T3 sensor activation Q score (ppGalNAc-T3 sensor): -0.33 | T2 sensor activation Q score (ppGalNAc-T2 sensor): -0.91

Cc1cccc(C)c1NC(=O)CN1CCCCC1
T3 sensor activation Q score (ppGalNAc-T3 sensor): 0.75 | T2 sensor activation Q score (ppGalNAc-T2 sensor): 0.375

O=[N+]([O-])c1ccc(N2CCOCC2)cc1OCCOc1ccccc1
T3 sensor activation Q score (ppGalNAc-T3 sensor): 0.7 | T2 sensor activation Q score (ppGalNAc-T2 sensor): -1.21

CCOc1cc(CN2CCc3ccccc3C2)ccc1OC
T3 sensor activation Q score (ppGalNAc-T3 sensor): 0.685 | T2 sensor activation Q score (ppGalNAc-T2 sensor): -0.515

CC(C)(C)c1ccc(C(=O)Nc2ccccc2Cl)cc1
T3 sensor activation Q score (ppGalNAc-T3 sensor): 0.415 | T2 sensor activation Q score (ppGalNAc-T2 sensor): 0.14

Cc1cccc(NC(=O)COc2ccc(Br)cc2)c1C
T3 sensor activation Q score (ppGalNAc-T3 sensor): 1.33 | T2 sensor activation Q score (ppGalNAc-T2 sensor): -0.21

O=C(NN1CCOCC1)c1cccs1
T3 sensor activation Q score (ppGalNAc-T3 sensor): 0.29 | T2 sensor activation Q score (ppGalNAc-T2 sensor): 0.51
